# According to PubChem BioAssay AID248 (DTP/NCI, 2004):
# The list does not hold the whole screen: it gathers tests that were run many times, whatever their T/C, doses with no T/C, and many T/C values between a quarter and a half above the control. Other doses and runs of a compound stand elsewhere. T/C is the treated group as % of the vehicle group. Some entries give survivors of the animals treated and no T/C: the source files T/C as zero there, which appears to mark a toxic dose or a test without result, not a measured value. Some survivor counts are full or nearly so, which does not show that the dose was tolerated: the source hardly ever lists a survival T/C far under the control, and the zero likely stands for such cases as well. Counts of survivors are from the toxicity check (mostly the fifth day) where no day follows; animals may have died later. Schedules are NCI's codes, taken here to give the interval after Q, in days (D) or hours (H), and the number of doses after X. Some entries were tested several times; the results are listed from low to high. Some schedule codes hold Z or #, which are not explained here.
# Tested on: L1210 leukemia ip in BDF1 mice, survival T/C
# Experiment: NCI In Vivo Anticancer Drug Screen. Data for tumor model L1210 Leukemia (intraperitoneal) in B6D2F1 (BDF1) mice
# Details: T/C endpoint: mean survival time, higher T/C = longer survival
# [1] = dose: 200.0 mg/kg/injection, schedule: Q04DX003 (ip), vehicle: saline with Tween-80
# [2] = dose: 400.0 mg/kg/injection, schedule: Q04DX003 (ip), vehicle: Klucel (hydroxypropylcellulose) (HPC)
# [3] = dose: 400.0 mg/kg/injection, schedule: Q04DX003 (ip), vehicle: saline with Tween-80
# [4] = dose: 400.0 mg/kg/injection, schedule: Q04DX003 (ip), vehicle: saline
# [5] = dose: 400.0 mg/kg/injection, schedule: Q01DX009 (ip), vehicle: Klucel (hydroxypropylcellulose) (HPC)
# [6] = dose: 300.0 mg/kg/injection, schedule: Q01DX001 (ip), vehicle: saline
# [7] = dose: 300.0 mg/kg/injection, schedule: Q01DX001 (ip), vehicle: other
# [8] = dose: 50.0 mg/kg/injection, schedule: Q04DX002 (ip), vehicle: Klucel (hydroxypropylcellulose) (HPC)
# [9] = dose: 100.0 mg/kg/injection, schedule: Q04DX002 (ip), vehicle: Klucel (hydroxypropylcellulose) (HPC)
# [10] = dose: 200.0 mg/kg/injection, schedule: Q04DX002 (ip), vehicle: Klucel (hydroxypropylcellulose) (HPC)
# [11] = dose: 400.0 mg/kg/injection, schedule: Q04DX002 (ip), vehicle: Klucel (hydroxypropylcellulose) (HPC)
# [12] = dose: 200.0 mg/kg/injection, schedule: Q01DX001 (ip), vehicle: Klucel (hydroxypropylcellulose) (HPC)
# [13] = dose: 200.0 mg/kg/injection, schedule: Q01DX001 (ip), vehicle: saline
# [14] = dose: 400.0 mg/kg/injection, schedule: Q01DX001 (ip), vehicle: saline
compound,measurement,setting,value
C=CC[P+](Cc1cccc(C)c1)(c1ccccc1)c1ccccc1,survivor count,"dose: 3.13 mg/kg/injection, schedule: Q01DX009 (ip), vehicle: saline with Tween-80",1 of 3
same,survivor count,"dose: 12.5 mg/kg/injection, schedule: Q01DX009 (ip), vehicle: saline with Tween-80",1 of 3
same,survivor count,"dose: 25.0 mg/kg/injection, schedule: Q01DX009 (ip), vehicle: saline with Tween-80",0 of 3
same,survivor count,"dose: 50.0 mg/kg/injection, schedule: Q01DX009 (ip), vehicle: saline with Tween-80",0 of 3
same,survivor count,"dose: 100.0 mg/kg/injection, schedule: Q01DX009 (ip), vehicle: saline with Tween-80",0 of 3
same,survivor count,"dose: 200.0 mg/kg/injection, schedule: Q01DX009 (ip), vehicle: saline with Tween-80",0 of 3
COC(=O)/C=C(/Nc1cc(Cl)cc(Cl)c1)C(=O)OC,survivor count,"dose: 200.0 mg/kg/injection, schedule: Q04DX003 (ip), vehicle: other",6 of 6
Cc1ccc(S(=O)(=O)OCC2C3CCC(C3=O)C2COS(=O)(=O)c2ccc(C)cc2)cc1 (configuration not stated),survivor count,[1],6 of 6
CC(C)(C)C(=O)CS(=O)(=O)C(Br)C(=O)C(C)(C)C (configuration not stated),survivor count,"dose: 200.0 mg/kg/injection, schedule: Q04DX003 (ip), vehicle: Klucel (hydroxypropylcellulose) (HPC)",3 of 6
same,survivor count,[2],3 of 6
COC(=O)c1ccc[n+](CC(=O)c2ccccc2)c1,survivor count,[3],2 of 6
CCOC(=O)c1ccc(NCC(C)(C)N(C)C)cc1,survivor count,"dose: 100.0 mg/kg/injection, schedule: Q04DX003 (ip), vehicle: saline",1 of 6
same,survivor count,"dose: 200.0 mg/kg/injection, schedule: Q04DX003 (ip), vehicle: saline",0 of 6
same,survivor count,[4],0 of 6
CNC(=O)Oc1ccc(/C=N/NC(=O)c2ccncc2)cc1OC,survivor count,[5],5 of 6
Brc1ccc(Nc2c3ccccc3nc3ccccc23)cc1,survivor count,[3],0 of 6
CC(C)(C)N1CCC1CO (configuration not stated),survivor count,[6],3 of 6
O=C(C[n+]1ccc2ccccc2c1)c1ccc2ccccc2c1,survivor count,"dose: 100.0 mg/kg/injection, schedule: Q04DX003 (ip), vehicle: saline with Tween-80",6 of 6
same,survivor count,[1],4 of 6
same,survivor count,[3],4 of 6
Cc1cccc([N+](=O)[O-])c1-c1ccccc1C(=O)O,survivor count,[5],6 of 6
CNC(=O)ON=C1CCC(CC2CCCCC2)CC1 (configuration not stated),survivor count,[2],2 of 6
CCCCNN,survivor count,[7],0 of 6
C[N+]1(CC(O)COc2ccc(Nc3ccc(N)c4c3C(=O)c3ccccc3C4=O)cc2)CCOCC1 (configuration not stated),survivor count,"dose: 200.0 mg/kg/injection, schedule: Q01DX001 (ip), vehicle: acetone",0 of 6
same,survivor count,"dose: 400.0 mg/kg/injection, schedule: Q01DX001 (ip), vehicle: acetone",0 of 6
N#CC(C#N)=Cc1ccc([N+](=O)[O-])s1,survivor count,[8],1 of 3
same,survivor count,[9],1 of 3
same,survivor count,[10],0 of 3
same,survivor count,[11],0 of 3
Cc1ccc(S(=O)(=O)NC(C)(C)CNc2ncnc(Cl)c2N)cc1,survivor count,"dose: 38.0 mg/kg/injection, schedule: Q01DX001 (ip), vehicle: other",1 of 6
same,survivor count,"dose: 75.0 mg/kg/injection, schedule: Q01DX001 (ip), vehicle: other",2 of 6
same,survivor count,"dose: 150.0 mg/kg/injection, schedule: Q01DX001 (ip), vehicle: other",0 of 6
same,survivor count,[7],0 of 6
O=C(Nc1ccc(CC2=NCCN2)cc1)c1cccc(C(=O)Nc2ccc(CC3=NCCN3)cc2)c1,survivor count,"dose: 33.0 mg/kg/injection, schedule: Q01DX Z (ip), vehicle: carboxymethylcellulose (CMC)",2 of 6
same,survivor count,"dose: 50.0 mg/kg/injection, schedule: Q01DX Z (ip), vehicle: carboxymethylcellulose (CMC)",0 of 6
same,survivor count,"dose: 75.0 mg/kg/injection, schedule: Q01DX Z (ip), vehicle: carboxymethylcellulose (CMC)",0 of 6
Nc1ccc(C(=O)OCCCCC2CCCC2N)cc1 (configuration not stated),survivor count,[6],0 of 6
N#C/C(=C\c1ccc([N+](=O)[O-])o1)[N+](=O)[O-],survivor count,[1],0 of 6
same,survivor count,[3],0 of 6
O=C1C=C(N2CC2)c2ccccc2C1=O,survivor count,"dose: 40.0 mg/kg/injection, schedule: Q01DX001 (ip), vehicle: Klucel (hydroxypropylcellulose) (HPC)",2 of 6
same,survivor count,"dose: 40.0 mg/kg/injection, schedule: Q01DX009 (ip), vehicle: Klucel (hydroxypropylcellulose) (HPC)",3 of 6
same,survivor count,"dose: 80.0 mg/kg/injection, schedule: Q01DX001 (ip), vehicle: Klucel (hydroxypropylcellulose) (HPC)",0 of 6
same,survivor count,"dose: 100.0 mg/kg/injection, schedule: Q01DX001 (ip), vehicle: Klucel (hydroxypropylcellulose) (HPC)",0 of 6
same,survivor count,[12],0 of 6
same,survivor count,"dose: 400.0 mg/kg/injection, schedule: Q01DX001 (ip), vehicle: Klucel (hydroxypropylcellulose) (HPC)",0 of 6
Cc1cc(NC(=O)c2ccc(C(=O)Nc3cc(C)nc4ccccc34)cc2)c2ccccc2n1,survivor count,"dose: 200.0 mg/kg/injection, schedule: Q01DX001 (ip), vehicle: other",2 of 6
same,survivor count,"dose: 400.0 mg/kg/injection, schedule: Q01DX001 (ip), vehicle: other",0 of 6
ClC(Cl)[P+](N1CCCCC1)(N1CCCCC1)N1CCCCC1,survivor count,"dose: 6.0 mg/kg/injection, schedule: Q04DX003 (ip), vehicle: Klucel (hydroxypropylcellulose) (HPC)",3 of 6
same,survivor count,"dose: 12.0 mg/kg/injection, schedule: Q04DX003 (ip), vehicle: Klucel (hydroxypropylcellulose) (HPC)",2 of 6
same,survivor count,"dose: 12.5 mg/kg/injection, schedule: Q04DX002 (ip), vehicle: Klucel (hydroxypropylcellulose) (HPC)",2 of 3
same,survivor count,"dose: 25.0 mg/kg/injection, schedule: Q04DX002 (ip), vehicle: Klucel (hydroxypropylcellulose) (HPC)",0 of 3
same,survivor count,[8],0 of 3
same,survivor count,[9],0 of 3
same,survivor count,[10],0 of 3
same,survivor count,[11],0 of 3
Nc1cccc[n+]1CC1(c2ccccc2)OCCO1,survivor count,[12],1 of 6
CN(C)c1ccc(NC2=NCCO2)cc1,survivor count,"dose: 100.0 mg/kg/injection, schedule: Q01DX009 (ip), vehicle: saline",0 of 6
same,survivor count,[4],0 of 6
Cc1ccc(S(=O)(=O)OCC2OC(OCc3ccccc3)C3OC(C)(C)OC23)cc1 (configuration not stated),survivor count,"dose: 100.0 mg/kg/injection, schedule: Q04DX003 (ip), vehicle: Klucel (hydroxypropylcellulose) (HPC)",6 of 6
CC(=O)N1CCCCC1,survivor count,"dose: 400.0 mg/kg/injection, schedule: Q01DX001 (ip), vehicle: carboxymethylcellulose (CMC)",2 of 4
same,survivor count,"dose: 400.0 mg/kg/injection, schedule: Q01DX009 (ip), vehicle: saline",0 of 6
CCCCCCN(CCCCCC)P(=O)(N1CC1C)N1CC1C (configuration not stated),survivor count,[13],1 of 4
same,survivor count,[14],0 of 4
FC(F)(F)c1cccc(NC(=S)SCc2ccc(Cl)cc2)c1,survivor count,[11],2 of 3
c1ccc(CCC[P+](c2ccccc2)(c2ccccc2)c2ccccc2)cc1,survivor count,"dose: 80.0 mg/kg/injection, schedule: Q01DX001 (ip), vehicle: saline",0 of 6
same,survivor count,"dose: 100.0 mg/kg/injection, schedule: Q01DX001 (ip), vehicle: saline",0 of 4
same,survivor count,[13],0 of 4
same,survivor count,[14],0 of 4
NC(=S)N/N=C/c1ccc(Cl)cc1,survivor count,"dose: 100.0 mg/kg/injection, schedule: Q01DX009 (ip), vehicle: Klucel (hydroxypropylcellulose) (HPC)",0 of 6 and 1 of 6
same,survivor count,"dose: 200.0 mg/kg/injection, schedule: Q01DX009 (ip), vehicle: Klucel (hydroxypropylcellulose) (HPC)",0 of 6
same,survivor count,[5],0 of 6
C=C1C(=O)OC2CC3(C)C(OC(C)=O)CC=C(C)C3C(OC(C)=O)C12 (configuration not stated) (tested in a mixture with another compound),survivor count,[6],3 of 6
